Measurements reported in PubChem BioAssay AID652259 (Drosophila RNAi Screening Center, 2013).

Purpose: 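Genome-wide hunt for genes that control Wingless pathway activity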 (primary screen)
System: Drosophila clone 8 imaginal disc epithelial cells
Reagents: long dsRNA against Drosophila genes
Treatment: pathway stimulated by co-transfected Wingless expression plasmid
Detection: 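Dual luciferase reads per well after Wingless plasmid stimulation: reporter firefly light and Renilla control light; activity is firefly divided by Renilla, a ratio not deposited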
Direction: firefly reporter light: higher = more Wg reporter light, before normalisation; Renilla control light: higher = more transfected or surviving cells
Active means: 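Strong candidates differ from their plate mean by at least two out of four per-plate statistical tests; weak candidates meet just one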
Calls: active = candidate regulator (raises or lowers reporter); inactive = not a candidate
The deposit covers about 22,000 reagents; below is a random part of those with a known target gene and a result. In the full data, 233 (1.1%) were called active. 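Light values are raw, unnormalised plate reads; the ratio scores behind the reporter calls were not deposited.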 A plus sign joins genes that one reagent is predicted to hit. No sequences are given here. Not given: the amount of reagent, the time to read-out, the dose of the treatment.

target gene	PubChem SID	reporter change call, replicate 1	firefly reporter light, replicate 1	firefly reporter light, replicate 2	Renilla control light, replicate 1	Renilla control light, replicate 2	Call
Lnk	SID104196521		2434	4226	583	1655	inactive
eIF1 (eukaryotic translation initiation factor 1)	SID104188312		7041		2645		inactive
Rop (Ras opposite)	SID104188485		10104		1661		inactive
CG13369	SID104198273		17420		13988		inactive
Agpat2 (1-Acylglycerol-3-phosphate O-acyltransferase 2)	SID104183324		6423		2644		inactive
CG18814	SID104190139		4807		2608		inactive
CG11413 + CG4622	SID104183901		3569	6583	836	2241	inactive
CG1492	SID104199397		16136		4363		inactive
CG5645	SID104190324		5622		1984		inactive
CG17826	SID104190081		12145		3300		inactive
CG14785	SID104198396		2842	6861	682	1984	inactive
CG3356	SID104184150		11045		3543		inactive
CG9896	SID104183754		21011		12257		inactive
CG9896	SID104184386		2985	6956	838	2443	inactive
CG3939	SID104198290		21882		11613		inactive
E(spl)mgamma-HLH (Enhancer of split mgamma, helix-loop-helix)	SID104196491		27634		22408		inactive
CG4593	SID104198166		21853		8957		inactive

A portion from the list above:
target gene	PubChem SID	reporter change call, replicate 1	firefly reporter light, replicate 1	firefly reporter light, replicate 2	Renilla control light, replicate 1	Renilla control light, replicate 2	Call
CG13369	SID104198273		17420		13988		inactive
Agpat2 (1-Acylglycerol-3-phosphate O-acyltransferase 2)	SID104183324		6423		2644		inactive
CG18814	SID104190139		4807		2608		inactive
CG11413 + CG4622	SID104183901		3569	6583	836	2241	inactive
CG1492	SID104199397		16136		4363		inactive
CG5645	SID104190324		5622		1984		inactive
CG17826	SID104190081		12145		3300		inactive
CG14785	SID104198396		2842	6861	682	1984	inactive

Next records follow:
target gene	PubChem SID	reporter change call, replicate 1	firefly reporter light, replicate 1	firefly reporter light, replicate 2	Renilla control light, replicate 1	Renilla control light, replicate 2	Call
CG14668	SID104192046		11649		3522		inactive
CG43861	SID104181962		3181	7080	635	2941	inactive
CG43861	SID104182100		2016	7464	557	2295	inactive
CG34396	SID104184037		3714	11344	760	3648	inactive
CG34396	SID104184038		1830	6657	507	2082	inactive
Dr (Drop)	SID104196794		5384	9461	2192	3575	inactive
Dr (Drop)	SID104202093		4.93e5	5.45e5	69121	22857	inactive
P5CS (Delta[1]-pyrroline-5-carboxylate synthase)	SID104191623		6999		3667		inactive
P5CS (Delta[1]-pyrroline-5-carboxylate synthase)	SID104191624		11360		4471		inactive
ttm50 (tiny tim 50)	SID104198379		2427	8340	1392	2416	inactive
CG15564	SID104194894		7019		2953		inactive
CG8349	SID104182875		3325	7916	992	3195	inactive
eyg (eyegone)	SID104191136		4605		530		inactive
stau (staufen)	SID104187490		17234		4962		inactive
CG9394	SID104184342		2162	9341	487	3996	inactive
TwdlF (TweedleF)	SID104192017		5056		2778		inactive
MFS16 (Major Facilitator Superfamily Transporter 16)	SID104183843		3525	7548	832	3069	inactive
Kat60 (Katanin 60)	SID104192170		9511		2208		inactive
CG33489	SID104190380		8496		3029		inactive
wrm1 + wrm2	SID104190799		6592		2932		inactive
Elal (Elastin-like)	SID104196454		2192	8352	1120	3305	inactive
tweek	SID104182225		2360	6996	890	3042	inactive
tweek	SID104182226		3088	8284	919	3224	inactive
tweek	SID104182577	Wg reporter activity raised	13396		1707		active
fuss (fussel)	SID104196992		23048		17223		inactive
fuss (fussel)	SID104201193		4.24e5	4.39e5	1.27e5	1.42e5	inactive
CG31729	SID104182316		13994		3690		inactive
CG31729	SID104182738		2992	10465	864	4689	inactive
Obp56e (Odorant-binding protein 56e)	SID104186980		4256		2042		inactive
CG34290	SID104193452		4194		2312		inactive
Acbp4 (Acyl-CoA binding protein 4)	SID104190815		2152	5491	1314	2725	inactive
Nepl16 (Neprilysin-like 16)	SID104194442		17547		13749		inactive
